Data set [1] concerns the target prostate-specific membrane antigen (PSMA) (UniProt Q04609). Nature of the data set: flow cytometry and confocal microscopy on cells. Conditions: non-targeting control, signal treated as nonspecific background, PSEP about 7-fold higher in confocal; 2'-F pyrimidines; Flow binding: 50 nM Cy3-RNA on trypsinized, PBS-washed cells, 300 ug/ml yeast tRNA, 30 min, 37 C; protein on the cell surface; label: Cy3-CTP incorporated in strand 1 (RNA10); letters put together from the description. (Flow cytometry measures light scatter and fluorescence of single cells or particles in a stream.)

Chains of the proteins cited; added tags and fusions are not shown. Lines headed by an entry give the natural chain unless they say otherwise; changes in a name come on top.
UniProt Q04609: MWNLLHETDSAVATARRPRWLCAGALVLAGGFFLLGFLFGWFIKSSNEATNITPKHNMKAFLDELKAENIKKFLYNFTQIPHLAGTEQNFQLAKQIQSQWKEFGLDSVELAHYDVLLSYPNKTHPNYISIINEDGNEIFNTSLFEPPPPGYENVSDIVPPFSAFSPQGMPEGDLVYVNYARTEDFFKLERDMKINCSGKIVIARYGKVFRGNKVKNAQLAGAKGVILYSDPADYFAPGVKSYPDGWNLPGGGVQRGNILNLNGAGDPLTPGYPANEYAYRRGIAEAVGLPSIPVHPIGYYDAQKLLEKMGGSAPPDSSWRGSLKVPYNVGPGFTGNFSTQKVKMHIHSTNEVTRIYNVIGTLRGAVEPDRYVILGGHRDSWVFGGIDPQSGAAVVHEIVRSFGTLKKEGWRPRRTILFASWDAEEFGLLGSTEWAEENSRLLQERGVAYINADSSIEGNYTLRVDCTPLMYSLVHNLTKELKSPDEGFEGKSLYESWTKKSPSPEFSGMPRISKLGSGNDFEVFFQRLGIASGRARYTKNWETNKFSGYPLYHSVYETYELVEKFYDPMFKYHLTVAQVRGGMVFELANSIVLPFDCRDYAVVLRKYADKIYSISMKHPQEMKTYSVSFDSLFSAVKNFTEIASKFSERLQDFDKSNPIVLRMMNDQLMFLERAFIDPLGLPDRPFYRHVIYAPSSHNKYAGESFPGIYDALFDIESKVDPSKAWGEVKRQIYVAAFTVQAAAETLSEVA

Data set [2] has the same target. In words: flow cytometry on cells. Conditions: 50 nM PSEP, C4-2 cells, staining reduced on PSMA knockdown, no binding to PSMA-negative PC3, BXPC3, T-24; 2'-F pyrimidines; Flow binding: 50 nM Cy3-RNA on trypsinized, PBS-washed cells, 300 ug/ml yeast tRNA, 30 min, 37 C; protein on the cell surface; label: Cy3-CTP incorporated in strand 1 (RNA1).

For at least one entry, the source does not settle the construct or the ends of the probe. Where cells or extracts were used, other partners may take part. For some assays here: Negatives hold for the conditions tested. For some assays here: At least one verdict was read from the data and is not stated in words by the source.

Consider “GGAUCCCGACUGGCGAGAGCCAGGUAACGAAUGGAUCCUUUUGUAGAGAUGCGGUGGUCCUU / GGAUCCCGACUGGCGAGAGCCAGGUAACGAAUGGAUCCAAAAACCUUAGCAGUCUUAUCUAAUUUUGGACCACCGCAUCUCUACAUU / UUAGAUAAGACUGCUAAGGCA [MSEM (two MG aptamers, non-targeting control)]”, for which the binding result in data set [1] is on record as “no binding”. Regarding “GGGAGGACGAUGCGGAUCAGCCAUGUUUACGUCACUCCUAAAAUGUAGAGAUGCGGUGGUCCUU / GGGAGGACGAUGCGGAUCAGCCAUGUUUACGUCACUCCUAAAACCUUAGCAGUCUUAUCUAAUUUUGGACCACCGCAUCUCUACAUU / UUAGAUAAGACUGCUAAGGCA”, the binding result in data set [2] was “binds”.

These data come from paper PMC4960556.
